Assay results: patent US10494366B2, “Pesticidally active amide heterocyclic derivatives with sulphur containing substituents” (Syngenta Participations AG, priority 2014, dated 2019)
Some entries share one result that the patent states for a list of compounds. For some assays here: For at least one compound, name, drawing or mass did not settle the structure.

What was measured:
Type in all cases: in vivo
[1] = test system: Aedes aegypti (yellow fever mosquito); experiment: Example B9: Aedes aegypti, dried deposits in tissue culture plates; conditions: application rate 200ppm in ethanol; adult females; after 48h and/or 24 h
[2] = test system: Spodoptera littoralis (Egyptian cotton leaf worm); experiment: Example B1: Spodoptera littoralis, sprayed cotton leaf discs; conditions: application rate 200 ppm, L1 larvae, 3 days after infestation
Protocol: Cotton leaf discs were placed on agar in 24-well microtiter plates and sprayed with aqueous test solutions prepared from 10,000 ppm DMSO stock solutions. After drying the leaf discs were infested with five L1 larvae. The samples were assessed for mortality, anti-feedant effect, and growth inhibition in comparison to untreated samples 3 days after infestation. Control of Spodoptera littoralis by a test sample is when at least one of mortality, anti-feedant effect, and growth inhibition is higher than the untreated sample.

[3] = test system: Spodoptera littoralis (Egyptian cotton leaf worm); experiment: Example B2: Spodoptera littoralis, systemic test via lettuce roots in agar; conditions: application rate 12.5 ppm, Spodoptera eggs, 6 days after infestation
Description: Test compounds were applied by pipette from 10,000 ppm DMSO stock solutions into 24-well plates and mixed with agar. Lettuce seeds were placed on the agar and the multi well plate was closed by another plate which contains also agar. After 7 days the roots have absorbed the compound and the lettuce has grown into the lid plate. The lettuce leafs were now cut off into the lid plate. Spodoptera eggs were pipetted through a plastic stencil on a humid gel blotting paper and the plate closed with it. The samples were assessed for mortality, anti-feedant effect and growth inhibition in comparison to untreated samples 6 days after infestation.
The following compounds gave an effect of at least 80% control in at least one of the three categories (mortality, anti-feedancy or growth inhibition) at an application rate of 12.5 ppm: P2, P3, P8, P9, P11 and P17, P19, P20, P22, P23, P25, P26, P28, P30, P31, P32, P33, P40, P42, P43, P44, P45, P46, P47, P48, P49, P50, P51, P52, P53, P54, P60 and P61.

[4] = test system: Plutella xylostella (diamond back moth); experiment: Example B3: Plutella xylostella, treated artificial diet; conditions: application rate 200 ppm, L2 larvae, 5 days after infestation
Protocol: 24-well microtiter plates with artificial diet were treated with aqueous test solutions prepared from 10,000 ppm DMSO stock solutions by pipetting. After drying, the plates were infested with L2 larvae (10 to 15 per well). The samples were assessed for mortality and growth inhibition in comparison to untreated samples 5 days after infestation.

Structure (SMILES)	control of Aedes aegypti [1]	also measured
CCS(=O)(=O)c1cc(-c2ccc(Cl)cc2)cnc1C(=O)/N=c1\sc(C(F)(F)F)nn1C [Compound P2, (N)-5-(4-chlorophenyl)-3-ethylsulfonyl-N-[3-methyl-5-(trifluoromethyl)-1,3,4-thiadiazol-2-ylidene]pyridine-2-carboxamide]	at least 80%	
CCS(=O)(=O)c1cc(-c2ccc(Cl)cc2)c[n+]([O-])c1C(=O)N=c1sc(C(F)(F)F)nn1C [Compound P3, (N)-5-(4-chlorophenyl)-3-ethylsulfonyl-N-[3-methyl-5-(trifluoromethyl)-1,3,4-thiadiazol-2-ylidene]-1-oxido-pyridin-1-ium-2-carboxamide]		control in at least one of the three categories (mortality, anti-feedancy or growth inhibition) [2]: at least 80%; control in at least one of the three categories (mortality, anti-feedancy or growth inhibition) [3]: at least 80%; effect in at least one of the two categories (mortality or growth inhibition) [4]: at least 80%
CCS(=O)(=O)c1cc(-c2ccc(C(F)(F)F)cc2)cnc1C(=O)/N=c1\sc(C(F)(F)C(F)(F)F)nn1C [Compound P8]	at least 80%	
CCS(=O)(=O)c1cc(-n2ccc(C(F)(F)F)n2)cnc1C(=O)/N=c1\sc(C(F)(F)C(F)(F)F)nn1C [Compound P9, (N)-3-ethylsulfonyl-N-[3-methyl-5-(1,1,2,2,2-pentafluoroethyl)-1,3,4-thiadiazol-2-ylidene]-5-[3-(trifluoromethyl)pyrazol-1-yl]pyridine-2-carboxamide]	at least 80%	
CCS(=O)(=O)c1cc(-c2ccc(Cl)cc2)cnc1C(=O)/N=c1\sc(C(F)(F)C(F)(F)F)nn1C [Compound P11]	at least 80%	
CCS(=O)(=O)c1cc(-c2ccc(C(F)(F)F)cc2)cnc1C(=O)N=c1ccc(SC(F)(F)F)cn1C [Compound P16]	at least 80%	
